These results are taken from article PMC2360413.

The chains behind the UniProt entries cited, without tags or fusion partners. Residues count along the entry.
UniProt P21926: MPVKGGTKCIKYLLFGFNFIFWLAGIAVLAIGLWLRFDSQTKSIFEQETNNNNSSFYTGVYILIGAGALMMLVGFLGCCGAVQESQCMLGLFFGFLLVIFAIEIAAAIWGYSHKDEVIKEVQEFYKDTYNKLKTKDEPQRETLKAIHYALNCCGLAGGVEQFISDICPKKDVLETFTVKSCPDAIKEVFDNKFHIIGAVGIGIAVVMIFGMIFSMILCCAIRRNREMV
UniProt P38646, residues 47-679: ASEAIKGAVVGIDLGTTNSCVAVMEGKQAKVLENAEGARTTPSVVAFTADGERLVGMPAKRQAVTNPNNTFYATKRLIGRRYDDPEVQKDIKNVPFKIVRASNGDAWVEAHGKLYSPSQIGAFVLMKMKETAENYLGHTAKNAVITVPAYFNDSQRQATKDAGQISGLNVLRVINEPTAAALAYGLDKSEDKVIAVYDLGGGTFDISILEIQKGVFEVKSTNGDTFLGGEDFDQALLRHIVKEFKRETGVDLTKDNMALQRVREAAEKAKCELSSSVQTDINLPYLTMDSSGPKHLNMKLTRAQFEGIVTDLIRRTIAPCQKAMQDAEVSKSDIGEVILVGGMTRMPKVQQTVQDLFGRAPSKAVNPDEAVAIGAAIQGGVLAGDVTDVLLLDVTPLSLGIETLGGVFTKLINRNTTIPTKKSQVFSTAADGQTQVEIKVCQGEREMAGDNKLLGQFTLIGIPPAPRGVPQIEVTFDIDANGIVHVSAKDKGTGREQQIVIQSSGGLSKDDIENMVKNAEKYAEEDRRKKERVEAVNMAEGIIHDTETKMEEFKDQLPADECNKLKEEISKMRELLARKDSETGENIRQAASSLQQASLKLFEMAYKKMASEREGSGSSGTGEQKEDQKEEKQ

No constants are given. Whether binding was seen depends on the method and setting. In cells and extracts the contact can be indirect. Here binding means that the protein was enriched with, or labelled near, the bait; the list need not be complete.

In the assay the target is Cluster-of-differentiation antigen 9 (CD9) (human (endogenous in PC-3 and PC-3M-LN4)) (UniProt P21926). Kind of assay: affinity purification with mass spectrometry; 1 mg precleared 1% Brij 97 lysate of PC-3 and PC-3M-LN4 cells, overnight with anti-CD9 mAb MM2/57 and protein G Sepharose; non-reducing SDS-PAGE, silver staining, 75-kDa band excised, MALDI-TOF MS.

Take “HSPA9B protein, also known as mortalin (from UniProt P38646 47-679)”: the binding entry is on record as “binds”.
